{"sequences": {"note": "Protein sequences, listed by entry. Tags and fused reporters are not part of them.", "UniProt Q9D9T0": "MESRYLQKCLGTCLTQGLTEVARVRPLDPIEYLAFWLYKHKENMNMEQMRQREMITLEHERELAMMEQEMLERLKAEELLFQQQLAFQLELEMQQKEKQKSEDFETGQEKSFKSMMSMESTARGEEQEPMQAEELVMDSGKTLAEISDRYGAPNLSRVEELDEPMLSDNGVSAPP"}, "source": "paper doi:10.1101/2023.06.02.543457", "target": "T1, Rsph3b (mouse) (UniProt Q9DA80)", "T1 sequence": "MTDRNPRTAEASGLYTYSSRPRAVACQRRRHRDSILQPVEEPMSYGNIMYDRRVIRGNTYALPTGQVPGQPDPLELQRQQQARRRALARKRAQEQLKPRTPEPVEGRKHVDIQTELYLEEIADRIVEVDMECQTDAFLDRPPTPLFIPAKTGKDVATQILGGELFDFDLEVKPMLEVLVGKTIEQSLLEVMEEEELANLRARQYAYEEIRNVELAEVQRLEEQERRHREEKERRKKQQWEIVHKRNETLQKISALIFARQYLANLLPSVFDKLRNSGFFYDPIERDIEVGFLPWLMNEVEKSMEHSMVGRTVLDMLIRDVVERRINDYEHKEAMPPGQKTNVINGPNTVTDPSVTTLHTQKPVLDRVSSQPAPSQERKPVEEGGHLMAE", "assay": "cryo-EM structure", "note": "Results are given in words; binding and its absence hold for the method and conditions named. Some binding calls cover weakened binding; strength is not graded here."}
{"substance": "Rsph2 (from UniProt Q9D9T0 1-175)", "values": [{"measurement": "binding", "result": "binds"}]}
